Values are the deposited “Percent Effect”, in %.
The controls that fix the scale are not given in the record; negative values are as filed.
This is an unselected part of the compounds tested.
A dash means the value is not listed here; it may have been measured.

Mtb growth Cornell: 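Whole-cell assay for inhibitors of Mycobacterium tuberculosis growth, labelled Cornell in the record; the read-out is not stated. The concentration is filed as 10 mM, unlikely as a test dose, so the dose is not known. The record gives no direction; compounds strong in two other growth screens of this library score well above the rest, so higher reads as stronger inhibition. Of about 53,000 compounds tested this way, about 900 (1.7%) reached 50% or more in at least one test.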
Mtb heat-shock: 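Assay on Mycobacterium tuberculosis, filed only as a heat shock assay from Cornell; the read-out is not stated. The concentration is filed as 10 mM, unlikely as a test dose, so the dose is not known. Direction is inferred from retests: higher values go with stronger inhibition. Size under these conditions: about 69,000 compounds, about 930 of them at 50% or above in at least one test.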

{"compound": "CCc1cnc(NCC(C)Oc2cccnc2)nc1", "stereo": "centres undefined", "Mtb growth Cornell": -7.364, "Mtb heat-shock": -11.46}
{"compound": "Cn1ccnc1C(=O)N1CCC2(CC1)CC(Oc1cccnc1)CO2.O=C(O)C(F)(F)F", "stereo": "centres undefined", "Mtb heat-shock": -37.97}
{"compound": "COC(=O)CNC(=O)c1cn(-c2ccccn2)c(=O)c2ccccc12", "Mtb growth Cornell": 6.497, "Mtb heat-shock": 8.845}
{"compound": "N#Cc1ccnc(N2CCN(CC(O)c3ccccc3Cl)CC2)c1", "stereo": "centres undefined", "Mtb growth Cornell": 3.886, "Mtb heat-shock": -6.977}
{"compound": "O=C(c1cc(CC2(NCC3CCCCC3)COC2)no1)N1CCCCC1", "Mtb heat-shock": -14.2}
{"compound": "Cn1ccc(-c2cc(C(=O)N3CCC(C(N)=O)CC3)c3ccccn23)n1", "Mtb growth Cornell": 11.2, "Mtb heat-shock": 6.568}
{"compound": "CC(C)(C)c1coc([C@@H]2COCCN2Cc2ccccc2)n1", "Mtb growth Cornell": 1.5, "Mtb heat-shock": -8.132}
{"compound": "Cc1cc(NC(=O)c2nc(N3CCCC3)ncc2Cl)ccc1Br", "Mtb heat-shock": 4.89}
{"compound": "CC(C)CCNC(=O)c1ccc(-n2cnc3ccccc3c2=O)cc1", "Mtb growth Cornell": 27.07, "Mtb heat-shock": 23.69}
{"compound": "CCN(C(=O)c1cc(C)nc2ccccc12)C1CC(=O)NC1=O", "stereo": "centres undefined", "Mtb growth Cornell": 17.68, "Mtb heat-shock": 29.35}
{"compound": "Cc1nc(N2CCN(C(=O)C3CC3)CC2)c2c(n1)c(C)nn2C", "Mtb heat-shock": 15.22}
{"compound": "[H][C@@]12CN(Cc3cccnc3OC)C[C@H](C(=O)N3CCCO3)[C@]1([H])CCO2", "Mtb growth Cornell": 4.165, "Mtb heat-shock": -43.47}
{"compound": "CN(C)C(=O)N1CCC2(CCCN(c3ncccn3)C2)C1.O=C(O)C(F)(F)F", "stereo": "centres undefined", "Mtb heat-shock": -28.82}
{"compound": "CC(C)(C)OC(=O)N1CCC(NC2CC2)CC1", "Mtb growth Cornell": 11.46, "Mtb heat-shock": 1.65}
{"compound": "[H][C@@]12CCN(S(C)(=O)=O)C[C@]1([H])[C@@H](CNC(=O)c1nccn1C)OC2", "Mtb growth Cornell": -35.59, "Mtb heat-shock": -9.785}
{"compound": "CC(=O)NC1CCCN(C(=O)NCc2cccnc2)C1", "stereo": "centres undefined", "Mtb heat-shock": 9.477}
{"compound": "COc1cccc2c1ccn2CCNC(=O)C1CCC1", "Mtb growth Cornell": -47.35, "Mtb heat-shock": 2.241}
{"compound": "COc1ccc(CC(=O)N(C)Cc2nnc3ccccn23)cc1", "Mtb heat-shock": -9.844}
{"compound": "Cc1[nH]c2ccccc2c1CCNc1ncnc2c1CCNCC2", "Mtb growth Cornell": -3.575, "Mtb heat-shock": 1.152}
{"compound": "CC(C(=O)O)N1CCc2onc(-c3ccc(F)c(F)c3)c2C1", "stereo": "centres undefined", "Mtb heat-shock": -0.1273}
{"compound": "CCS(=O)(=O)CCNC(=O)NCc1ccccc1-n1cccn1", "Mtb growth Cornell": -48.5, "Mtb heat-shock": -1.403}
{"compound": "NC(=O)Cn1cc(NC(=O)NCC2CCN(c3ccccc3)C2)cn1", "stereo": "centres undefined", "Mtb growth Cornell": -58.65, "Mtb heat-shock": 1.395}
{"compound": "O=C(NCCN1CCOCC1)c1cnc(Cc2ccc(F)cc2)s1", "Mtb growth Cornell": -26.78, "Mtb heat-shock": -26.16}
{"compound": "Cc1noc2ncc(C(=O)N3CCCC3c3cnn(C)c3)cc12", "stereo": "centres undefined", "Mtb growth Cornell": -10.72, "Mtb heat-shock": 3.191}
{"compound": "O=C(NCCn1ccnc1)c1cc(F)cc(Br)c1", "Mtb growth Cornell": 21.13, "Mtb heat-shock": 27.28}
{"compound": "O=C(NCc1nn(-c2ccccc2)c2c1CCC2)NCC1COCCO1", "stereo": "centres undefined", "Mtb heat-shock": 20.65}
{"compound": "CN(C)c1ccc(C(=O)N2CCN(Cc3cscn3)CC2)cn1", "Mtb heat-shock": -31.72}
{"compound": "CC(C)(C)SCC(=O)Nc1cc(-n2nnnc2C2CC2)ccc1F", "Mtb growth Cornell": -40.91, "Mtb heat-shock": -39.07}
{"compound": "CCOc1cc(N2CCN(C(=O)c3ccc(OC)cc3)CC2)nc(C)n1", "Mtb growth Cornell": 3.494, "Mtb heat-shock": 6.215}
{"compound": "CN(CCc1cccs1)C1CCCN(Cc2noc(C3CC3)n2)C1", "stereo": "centres undefined", "Mtb growth Cornell": 4.172, "Mtb heat-shock": 32.3}
{"compound": "Cc1cnn(C2CCCN(C(=O)c3ccn(C)c(=O)c3)C2)c1", "stereo": "centres undefined", "Mtb heat-shock": -5.875}
{"compound": "COc1cccc(-c2cnc3n2CCC32CCN(S(C)(=O)=O)CC2)c1", "Mtb growth Cornell": 14.84, "Mtb heat-shock": -0.7987}
{"compound": "CCN(CC)S(=O)(=O)c1ccc(C(=O)NC(C)(C#N)C2CC2)cc1", "stereo": "centres undefined", "Mtb growth Cornell": -48.73, "Mtb heat-shock": -18.42}
{"compound": "CN(Cc1cn2c(n1)CN(C(=O)c1cccnc1)CC2)Cc1ccco1", "Mtb growth Cornell": 28.07, "Mtb heat-shock": -21.39}
{"compound": "Cc1nccn1-c1ccc(=O)n(CCNC(=O)Cc2ccccc2)n1", "Mtb growth Cornell": 4.846, "Mtb heat-shock": -1.361}
{"compound": "Cc1nccn1Cc1nnc(C2CCCN(c3cnccn3)C2)n1C", "stereo": "centres undefined", "Mtb growth Cornell": -20.78, "Mtb heat-shock": -12.86}
{"compound": "Cc1ncsc1COC(=O)c1cccc2c1OCCO2", "Mtb growth Cornell": 4.635, "Mtb heat-shock": -12.82}
{"compound": "CNC[C@H]1CC[C@H](c2cc(CN(C)C(=O)c3cnccn3)n(C)n2)CC1.Cl", "Mtb growth Cornell": -1.044, "Mtb heat-shock": -3.253}
{"compound": "CC(C)c1nnc2sc(CC3CN(C(C)C)CCO3)nn12", "stereo": "centres undefined", "Mtb growth Cornell": 13.35, "Mtb heat-shock": -0.8302}
{"compound": "COc1ccc(CN2CCC(c3cc(O)nc(C)n3)C2)c(OC)c1.O=C(O)CC(O)(CC(=O)O)C(=O)O", "stereo": "centres undefined", "Mtb heat-shock": -19.34}
{"compound": "N#Cc1ccc(OC2CCN(C(=O)COCC3CCCO3)CC2)cc1", "stereo": "centres undefined", "Mtb heat-shock": -3.496}

Once more, the final 5:

| compound | Mtb growth Cornell | Mtb heat-shock |
|---|---|---|
| `Cc1ncsc1COC(=O)c1cccc2c1OCCO2` | 4.635% | -12.82% |
| `CNC[C@H]1CC[C@H](c2cc(CN(C)C(=O)c3cnccn3)n(C)n2)CC1.Cl` | -1.044% | -3.253% |
| `CC(C)c1nnc2sc(CC3CN(C(C)C)CCO3)nn12` (centres undefined) | 13.35% | -0.8302% |
| `COc1ccc(CN2CCC(c3cc(O)nc(C)n3)C2)c(OC)c1.O=C(O)CC(O)(CC(=O)O)C(=O)O` (centres undefined) | - | -19.34% |
| `N#Cc1ccc(OC2CCN(C(=O)COCC3CCCO3)CC2)cc1` (centres undefined) | - | -3.496% |

Measurements from “University of Dundee, Small-Polar-MMV Screening Library” (2021), ChEMBL document CHEMBL3988442.